PubChem BioAssay AID1259405 – NCATS – 2018

- Test: 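Mouse-designed siRNAs used to find CHO productivity engineering targets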 (primary screen)
- Cell system: Chinese hamster CHO-K1 ovary cells with stable secreted eGFP expression
- Reagents: single siRNA against mouse genes, 0.8 pmol siRNA per well (2 µl of 400 nM stock)
- Time to read-out: 3 days
- Detection: 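Percent of the per-plate non-targeting control median for intracellular GFP per well by laser scanning cytometry and for cell viability by ATP luminescence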
- Scale: GFP, % of control: higher = more GFP per well, higher productivity; viability (ATP), % of control: higher = more viable cells (more ATP)
- Hit rule: 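Called active when intracellular GFP, relative to negative control, is at or above 120%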
Here is a random part of about 50,000 reagents tested. In the full data, about 4,000 (8%) were called active. 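Mouse siRNA library applied to hamster cells; one well for each siRNA.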 Reagents against one gene are numbered here.

What is on record for Trhr2 #1?
GFP, % of control: 63.7; viability (ATP), % of control: 65.7; activity call: inactive

Which result is listed for Trhr2 #2?
GFP, % of control: 75.5; viability (ATP), % of control: 76.2; activity call: inactive

For Trhr2 #3, what does the deposit list?
GFP, % of control: 87.8; viability (ATP), % of control: 86.5; activity call: inactive

What is on record for Blk?
GFP, % of control: 83.8; viability (ATP), % of control: 76.4; activity call: inactive

Which result is listed for Yod1 #1?
GFP, % of control: 89.6; viability (ATP), % of control: 89.1; activity call: inactive

Which result is listed for Yod1 #2?
GFP, % of control: 105; viability (ATP), % of control: 46.6; activity call: inactive

For Yod1 #3, how do the results read?
GFP, % of control: 74.4; viability (ATP), % of control: 93.3; activity call: inactive

Targets listed so far whose target name starts with T or t (3):
Trhr2 #1 → GFP, % of control: 63.7; viability (ATP), % of control: 65.7; activity call: inactive
Trhr2 #2 → GFP, % of control: 75.5; viability (ATP), % of control: 76.2; activity call: inactive
Trhr2 #3 → GFP, % of control: 87.8; viability (ATP), % of control: 86.5; activity call: inactive

Next entries:
How did the screen score Adm2 #1?
GFP, % of control: 66.5; viability (ATP), % of control: 46.1; activity call: inactive

What did the screen give for Adm2 #2?
GFP, % of control: 90.9; viability (ATP), % of control: 83.2; activity call: inactive

With Adm2 #3, how do the results read?
GFP, % of control: 40.5; viability (ATP), % of control: 59.1; activity call: inactive

For Ier5l #1, what was measured?
GFP, % of control: 104; viability (ATP), % of control: 93.9; activity call: inactive

With Ier5l #2, what was measured?
GFP, % of control: 81; viability (ATP), % of control: 39.2; activity call: inactive

With Ier5l #3, what was measured?
GFP, % of control: 96.5; viability (ATP), % of control: 135; activity call: inactive

For Pkp2 #1, how do the results read?
GFP, % of control: 86.3; viability (ATP), % of control: 75.8; activity call: inactive

For Pkp2 #2, what does the deposit list?
GFP, % of control: 52.5; viability (ATP), % of control: 55.2; activity call: inactive

For Pkp2 #3, how do the results read?
GFP, % of control: 70.2; viability (ATP), % of control: 75.5; activity call: inactive
